Results are given in words; binding and its absence hold for the method and conditions named. Binding seen in cells or lysates may run through a third protein. Some entries that bind do so weakly or less than the wild type. Where a sequence is shown, tags or fusion partners need not be part of it.
Assays:
Assay in all cases: co-IP; nuclear extracts of E14/T ESCs transfected with (Flag)3-Tet2 constructs and (HA)3-NANOG; 5 ug Flag antibody overnight at 4°C, Protein G Sepharose; lysis/wash buffer 20 mM Hepes pH 7.6, 350 mM KCl, 0.2 mM EDTA, 1.5 mM MgCl2, 20% glycerol, NP-40, DTT; Benzonase-treated; immunoblot
[1] = biological target: (Flag)3-TET2 C terminus (924-1,911) (UniProt Q4JK59)
[2] = biological target: T1, (Flag)3-TET2 truncation 1-828 (UniProt Q4JK59)
T1 sequence: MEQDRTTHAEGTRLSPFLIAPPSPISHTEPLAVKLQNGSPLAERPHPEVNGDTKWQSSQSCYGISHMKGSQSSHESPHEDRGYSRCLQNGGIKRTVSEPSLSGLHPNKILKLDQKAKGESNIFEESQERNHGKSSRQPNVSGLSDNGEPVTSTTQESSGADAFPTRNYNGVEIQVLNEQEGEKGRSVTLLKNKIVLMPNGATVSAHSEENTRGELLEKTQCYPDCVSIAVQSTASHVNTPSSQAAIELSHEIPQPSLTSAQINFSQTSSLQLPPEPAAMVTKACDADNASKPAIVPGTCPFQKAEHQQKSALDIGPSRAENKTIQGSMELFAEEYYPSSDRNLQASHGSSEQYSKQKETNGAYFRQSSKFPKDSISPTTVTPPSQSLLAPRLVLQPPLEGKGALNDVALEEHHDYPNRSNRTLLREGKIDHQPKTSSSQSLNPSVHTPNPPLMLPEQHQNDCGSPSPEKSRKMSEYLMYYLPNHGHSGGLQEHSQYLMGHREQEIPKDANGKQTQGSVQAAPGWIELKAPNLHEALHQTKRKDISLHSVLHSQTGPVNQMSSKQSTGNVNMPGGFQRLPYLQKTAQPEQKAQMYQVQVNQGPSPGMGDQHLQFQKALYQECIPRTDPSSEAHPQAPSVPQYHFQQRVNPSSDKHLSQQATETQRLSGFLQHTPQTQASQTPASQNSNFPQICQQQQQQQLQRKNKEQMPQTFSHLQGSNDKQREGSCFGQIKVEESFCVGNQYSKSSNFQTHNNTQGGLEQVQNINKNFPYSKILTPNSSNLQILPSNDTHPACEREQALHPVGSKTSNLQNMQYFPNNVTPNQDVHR

[3] = biological target: (Flag)3-TET2 N terminus (1-1,221) (UniProt Q4JK59)
[4] = biological target: (Flag)3-TET2 full length (TET2 WT) (UniProt Q4JK59)
[5] = biological target: (Flag)3-TET2 truncation 924-1,377 (UniProt Q4JK59)

Measured: binding

B1: (HA)3-NANOG (protein, UniProt Q80Z64 1-305)
chain: MSVGLPGPHSLPSSEEASNSGNASSMPAVFHPENYSCLQGSATEMLCTEAASPRPSSEDLPLQGSPDSSTSPKQKLSSPEADKGPEEEENKVLARKQKMRTVFSQAQLCALKDRFQKQKYLSLQQMQELSSILNLSYKQVKTWFQNQRMKCKRWQKNQWLKTSNGLIQKGSAPVEYPSIHCSYPQGYLVNASGSLSMWGSQTWTNPTWSSQTWTNPTWNNQTWTNPTWSSQAWTAQSWNGQPWNAAPLHNFGEDFLQPYVQLQQNFSASDLEVNLEATRESHAHFSTPQALELFLNYSVTPPGEI
binds: all assays above
